Tested on: H. contortus moxidectin-resistant (MOF14) strain
Test: Efficacy of verapamil with or without ivermectin in jirds, moxidectin resistant strain
Type: in vivo
Conditions: MOX-RESISTANT (MOF14) strain in jirds; oral; VRP 20 mg/kg; IVM 0.046 mg/kg

## COc1ccc(CCN(C)CCCC(C#N)(c2ccc(OC)c(OC)c2)C(C)C)cc1OC (stereo not shown) [verapamil]
  significance of worm counts: n.s.

Reference: patent EP1832655A2, “Methods for detecting and reversing resistance to macrocyclic lactone compounds” (priority 1997, dated 1998)
